Test results from patent US8367829B2, “Bi-functional pyrazolopyridine compounds” (Gilead Sciences, Inc., priority 2010, dated 2013).
Some entries share one result that the patent states for a list of compounds.

System: LPS-induced neutrophil recruitment into the lungs
Assay: Inhibition of LPS-induced neutrophil recruitment into the lungs of Lewis rats
Assay type: in vivo
Conditions: dose of 300 μg/kg into the lungs (intra-tracheal), BAL 4 h post-LPS, vs vehicle-treated LPS-exposed controls

Row | SMILES | neutrophil inhibition
1 | CCc1nc2c(cnn2CC)c(NC2CCOCC2)c1CNC(=O)c1ccc(CCCCCNC[C@H](O)c2ccc(O)c3[nH]c(=O)ccc23)cc1 [Example 9, (R)—N-[[1,6-diethyl-4-[(tetrahydro-2H-pyran-4-yl)amino]-1H-pyrazolo[3,4-b]pyridin-5-yl]methyl]-4-[5-[[2-hydroxy-2-(8-hydroxy-2-oxo-1,2-dihydroquinolin-5-yl)ethyl]amino]pentyl]benzamide] | greater than 40%
2 | CCc1nc2c(cnn2CC)c(NC2CCOCC2)c1CNC(=O)c1cccc(CC(C)NC[C@H](O)c2ccc(O)c3[nH]c(=O)ccc23)c1 (stereo partly drawn) [Example 1, N-[[1,6-Diethyl-4-[(tetrahydro-2H-pyran-4-yl)amino]-1H-pyrazolo[3,4-b]pyridin-5-yl]methyl]-3-[2-[[(R)-2-hydroxy-2-(8-hydroxy-2-oxo-1,2-dihydroquinolin-5-yl)ethyl]amino]propyl]benzamide] | greater than 40%
